Several values for one entry are separate records, joined by “and”; a condition that tells them apart may be missing. Identical values can stand only once. The shares of active, inactive and inconclusive entries below differ from those in the screen. Potencies of inconclusive entries are doubtful fits and often do not repeat. A structure can be active in one record and inactive in another. Activity calls are given as the source filed them. Rule for the calls: active = hit-call score of the fitted dose curve at least 0.9, where 1 is the maximum; inconclusive = response in the unintended direction; inactive = score below 0.9.
Tests used:
[1] = molecular target: Retinoic acid receptor RXR-alpha (Homo sapiens) (UniProt P19793); assay: OT_NURR1_NURR1RXRa_0480: Odyssey Thera (OT) 8-hour HEK293T Protein Complementation Assay for Nurr1/retinoid X receptor (RXR) (AID 2283385)
Procedure, shortened: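 HEK293T cells expressing Nurr1 and RXRα fused to reporter fragments were dosed with compound for 8 hours. Complex formation was read as fluorescence intensity and analysed as gain of signal against DMSO as baseline.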

Amino acid sequences for entries named in this document (tags omitted). A change or cut given only in a name is not applied to a line headed by its entry.
UniProt P19793: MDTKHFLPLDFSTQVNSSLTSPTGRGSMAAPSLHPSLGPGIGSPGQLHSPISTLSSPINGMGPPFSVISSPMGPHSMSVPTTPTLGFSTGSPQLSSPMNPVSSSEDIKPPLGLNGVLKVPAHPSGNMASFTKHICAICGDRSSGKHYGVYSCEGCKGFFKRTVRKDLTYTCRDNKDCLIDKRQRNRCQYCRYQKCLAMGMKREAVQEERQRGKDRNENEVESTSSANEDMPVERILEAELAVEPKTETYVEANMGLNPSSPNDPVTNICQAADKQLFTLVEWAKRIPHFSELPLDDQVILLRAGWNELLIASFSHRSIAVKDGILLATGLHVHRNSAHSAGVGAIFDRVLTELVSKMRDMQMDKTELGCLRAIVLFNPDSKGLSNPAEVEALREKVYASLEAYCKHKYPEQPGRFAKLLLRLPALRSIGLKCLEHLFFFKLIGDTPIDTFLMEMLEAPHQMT
UniProt P04637, whole entry, looked up: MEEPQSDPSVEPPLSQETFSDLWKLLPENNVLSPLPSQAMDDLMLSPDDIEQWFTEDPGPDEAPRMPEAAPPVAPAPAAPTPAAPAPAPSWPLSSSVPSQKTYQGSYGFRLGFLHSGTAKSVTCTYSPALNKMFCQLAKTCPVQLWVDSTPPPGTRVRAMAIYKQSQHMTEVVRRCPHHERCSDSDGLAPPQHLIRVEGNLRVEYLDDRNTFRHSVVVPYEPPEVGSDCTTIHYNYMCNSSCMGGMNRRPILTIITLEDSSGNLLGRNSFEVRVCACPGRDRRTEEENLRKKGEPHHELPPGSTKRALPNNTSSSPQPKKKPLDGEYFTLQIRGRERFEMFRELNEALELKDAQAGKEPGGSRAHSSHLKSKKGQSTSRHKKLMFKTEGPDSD

[2] = molecular target: Retinoic acid receptor RXR-alpha (Homo sapiens) (UniProt P19793); assay: OT_NURR1_NURR1RXRa_1440: Odyssey Thera (OT) 24-hour HEK293T Protein Complementation Assay for Nurr1/retinoid X receptor (RXR) (AID 2283386)
Procedure, shortened: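 HEK293T cells were dosed with compound and read 24 h later by fluorescence intensity in a protein-fragment complementation format, where Nurr1–RXRα interaction reconstitutes a split reporter. Activity was fitted as gain of signal relative to DMSO baseline.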

[3] = TOX21_p53_BLA_p2_viability: Viability Assessment in the Tox21 HCT-116 p53 Agonism Beta-lactamase Assay, Phase 2 (AID 2283591);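 note: actives lower the ATP signal meaning cytotoxicity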
Procedure, shortened: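 HCT-116 p53-bla cells (4000/well) rested 5 h at 37C, then received compounds in DMSO (217-fold dilution) for 16 h at 37C, 5% CO2. After the CCF4 read, CellTiter-Glo was added; ATP luminescence was read after 30 min at room temperature.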

[4] = TOX21_p53_BLA_p3_viability: Viability Assessment in the Tox21 HCT-116 p53 Agonism Beta-lactamase Assay, Phase 3 (AID 2283593);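 note: cells exposed to compound for 16 h before reading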
Procedure, shortened: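 HCT-116 cells (4000/well) rested 5 h at 37C, then got DMSO compounds by pin tool (217-fold dilution) for 16 h at 37C, 5% CO2. After the bla read, CellTiter-Glo was added and luminescence read at 30 min, room temperature.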

[5] = TOX21_p53_BLA_p5_viability: Viability Assessment in the Tox21 HCT-116 p53 Agonism Beta-lactamase Assay, Phase 5 (AID 2283600)
Procedure, shortened: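 Counter-readout for cytotoxicity: ATP-dependent luminescence from CellTiter-Glo, read in the beta-lactamase wells after 30 min at RT, following a 16 h compound exposure at 37C.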

[6] = molecular target: Cellular tumor antigen p53 (Homo sapiens) (UniProt P04637); assay: TOX21_p53_BLA_p4_ratio: Tox21 HCT-116 p53 Agonism Beta-lactamase Assay, Ratio, Phase 4 (AID 2283601)
Procedure, shortened: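 HCT116 cells carrying an inducible beta-lactamase reporter were plated at 4000 cells/well, rested 5 h, then exposed to compounds in DMSO (217-fold dilution) for 16 h at 37C. CCF4-AM substrate was loaded 2 h at room temperature; 460/530 nm emission ratio scored gain-of-signal versus DMSO.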

[7] = molecular target: Cellular tumor antigen p53 (Homo sapiens) (UniProt P04637); assay: TOX21_p53_BLA_p2_ratio: Tox21 HCT-116 p53 Agonism Beta-lactamase Assay, Ratio, Phase 2 (AID 2283592)
Procedure, shortened: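 An inducible beta-lactamase reporter in HCT116 cells signals p53 pathway activation. After 16 h chemical exposure at 37C, cells load CCF4-AM substrate for 2 h at room temperature; activity is the cleaved/uncleaved emission ratio relative to DMSO.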

[8] = molecular target: Cellular tumor antigen p53 (Homo sapiens) (UniProt P04637); assay: TOX21_p53_BLA_p3_ratio: Tox21 HCT-116 p53 Agonism Beta-lactamase Assay, Ratio, Phase 3 (AID 2283596)
Procedure, shortened: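 HCT116 p53-bla cells (4000/well) given compound in DMSO (217-fold dilution) after 5 h, incubated 16 h at 37C. CCF4-AM substrate 2 h at room temperature; 460/530 nm emission ratio, gain fitted against DMSO.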

[9] = TOX21_p53_BLA_p4_viability: Viability Assessment in the Tox21 HCT-116 p53 Agonism Beta-lactamase Assay, Phase 4 (AID 2283597);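 note: hits lower the luminescence signal meaning cytotoxicity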
Procedure, shortened: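 Compound exposure of HCT116 cells lasts 16 h at 37C, 5% CO2, with DMSO stocks diluted 217-fold. Cellular ATP is then quantified by CellTiter-Glo luminescence after 30 min at room temperature.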

[10] = molecular target: Cellular tumor antigen p53 (Homo sapiens) (UniProt P04637); assay: TOX21_p53_BLA_p5_ratio: Tox21 HCT-116 p53 Agonism Beta-lactamase Assay, Ratio, Phase 5 (AID 2283599)
Procedure, shortened: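 HCT-116 cells carrying a p53-inducible beta-lactamase reporter were seeded at 4000 cells/well and dosed after 5 h with compound in DMSO (217-fold dilution). After 16 h at 37C, CCF4-AM substrate was added for 2 h, and the 460/530 nm emission ratio was scored as gain-of-signal versus DMSO.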

[11] = Tanguay_ZF_120hpf_EYE_legacy: (Legacy) Oregon State University Tanguay Lab 120 Hour Post-fertilization zebrafish Assay for Eye Malformation (AID 2283636);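 note: binary presence or absence of eye malformation scored by brightfield in 120 hpf larvae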
Procedure, shortened: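 Dechorionated wild-type Tropical 5D zebrafish embryos were exposed statically from 6 hpf, one per well, to 120 hpf at 28C in sealed, foil-covered plates with 0.64% DMSO. Eye malformation was scored present/absent by brightfield microscopy against DMSO controls.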

[12] = Tanguay_ZF_120hpf_JAW_legacy: (Legacy) Oregon State University Tanguay Lab 120 Hour Post-fertilization zebrafish Assay for Jaw Malformation (AID 2283638);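 note: active means more embryos with jaw malformation than DMSO controls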
Procedure, shortened: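 Static waterborne exposure of dechorionated wild-type (Tropical 5D) zebrafish from 6 to 120 hpf at 28C, 0.64% DMSO vehicle; 5uM trimethyltin chloride served as positive control. Jaw morphology recorded as binary at 120 hpf.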

Compound: NC(=O)Cn1c(=O)cc(CCN2CCN(c3nccc4sccc34)CC2)c2ccc(F)cc21
- AC50 [1]: inconclusive: 11.2 µM and inconclusive: 50 µM
- AC50 [2]: inconclusive: 25.1 µM and inconclusive: 28.5 µM
- AC50 [3]: inconclusive: 0.0223 µM
- outcome [4]: inactive
- AC50 [5]: inconclusive: 86.4 µM
- AC50 [6]: inconclusive: 46.1 µM

Compound: O=C(O)C1(C(=O)Nc2ccc(Cl)cc2Cl)CC1
- AC50 [1]: inconclusive: 8.29 µM and inconclusive: 50 µM
- AC50 [2]: active: 50 µM and inconclusive: 50 µM
- AC50 [7]: active: 18.6 µM
- outcome [8]: inactive
- outcome [9]: inactive
- outcome [5]: inactive
- AC50 [6]: active: 46.1 µM

Compound: Cc1cc(C)c(C(=O)O)c(C)c1
- AC50 [1]: inconclusive: 50 µM
- outcome [2]: inactive
- AC50 [3]: inconclusive: 0.000118 µM
- AC50 [4]: inconclusive: 0.000118 µM
- AC50 [9]: inconclusive: 46.1 µM
- AC50 [5]: inconclusive: 0.00195 µM

Compound: CC(C)=CCC[C@H](C)CCO
- AC50 [1]: active: 75.8 µM
- outcome [2]: inactive
- AC50 [3]: inconclusive: 46.1 µM
- outcome [9]: inactive
- AC50 [10]: inconclusive: 46.1 µM

Compound: O=C(OCCc1ccccc1)c1ccccc1
- AC50 [1]: inconclusive: 0.506 µM
- outcome [2]: inactive
- AC50 [3]: inconclusive: 0.00157 µM
- AC50 [4]: inconclusive: 46.1 µM
- outcome [10]: inactive
- AC50 [5]: inconclusive: 46.1 µM

Compound: CCCCCCC1(C)CCC(=O)O1 (stereo unspecified)
- AC50 [1]: inconclusive: 50 µM
- AC50 [2]: inconclusive: 50 µM
- AC50 [3]: inconclusive: 9.14 µM
- outcome [4]: inactive
- AC50 [10]: inconclusive: 46.1 µM

Compound: CC(C)(C)N
- AC50 [1]: inconclusive: 0.692 µM
- outcome [2]: inactive
- AC50 [7]: inconclusive: 46.1 µM
- AC50 [4]: inconclusive: 0.378 µM
- AC50 [10]: inconclusive: 46.1 µM
- AC50 [5]: inconclusive: 46.1 µM
- AC50 [6]: inconclusive: 46.1 µM

Compound: O=C(OCCOCCOCCOC(=O)c1ccccc1)c1ccccc1
- AC50 [1]: inconclusive: 50 µM
- AC50 [2]: inconclusive: 50 µM
- AC50 [4]: inconclusive: 46.1 µM
- AC50 [8]: inconclusive: 46.1 µM
- AC50 [9]: inconclusive: 0.22 µM
- AC50 [10]: active: 82.1 µM
- outcome [5]: inactive

Compound: COC(=O)c1c(C)cc(O)c(C)c1O
- AC50 [1]: inconclusive: 50 µM
- AC50 [2]: inconclusive: 86.1 µM
- AC50 [4]: inconclusive: 46.1 µM
- AC50 [8]: inconclusive: 46.1 µM
- outcome [9]: inactive

Compound: CCOC(=O)CC
- AC50 [1]: inconclusive: 50 µM
- outcome [2]: inactive
- outcome [7]: inactive
- AC50 [8]: inconclusive: 46.1 µM
- AC50 [9]: inconclusive: 1.73 µM

Compound: CC1(C)C(C=C(Cl)Cl)C1C(=O)OCc1cccc(Oc2ccccc2)c1 (stereo unspecified)
- AC50 [1]: inconclusive: 50 µM
- AC50 [2]: inconclusive: 1.03 µM
- AC50 [4]: inconclusive: 46.1 µM and inconclusive: 23 µM
- outcome [4]: inactive
- AC50 [8]: inconclusive: 46.1 µM
- AC50 [9]: inconclusive: 76.9 µM
- AC50 [10]: inconclusive: 46.1 µM and inconclusive: 45.8 µM and inconclusive: 23 µM
- outcome [5]: inactive
- AC50 [6]: inconclusive: 46.1 µM and inconclusive: 15.1 µM

Compound: C(=C(c1ccccc1)c1ccccc1)c1ccccc1
- AC50 [1]: active: 90.2 µM
- AC50 [2]: active: 81.3 µM
- outcome [3]: inactive
- AC50 [8]: inconclusive: 75.8 µM
- AC50 [6]: inconclusive: 46.1 µM

Compound: OC12N=C(c3ccccc3)SC1Cc1cc(Cl)ccc12 (stereo unspecified)
- AC50 [1]: inconclusive: 14.7 µM
- AC50 [2]: active: 30 µM and inconclusive: 14.8 µM
- AC50 [4]: inconclusive: 46.1 µM
- AC50 [8]: inconclusive: 35.7 µM
- AC50 [9]: active: 66.6 µM
- AC50 [5]: inconclusive: 16.1 µM
- AC50 [6]: active: 86.6 µM
- AC50 [11]: active: 11.1 µM

Compound: CCCCCc1ccc(N)cc1
- AC50 [1]: inconclusive: 51.4 nM and inconclusive: 10.8 nM
- AC50 [2]: inconclusive: 0.5 µM
- outcome [7]: inactive
- outcome [9]: inactive
- AC50 [10]: inconclusive: 46.1 µM
- outcome [6]: inactive
- AC50 [11]: inconclusive: 16.4 µM
- AC50 [12]: inconclusive: 26.7 µM

Compound: CNCc1cc(F)ccc1Oc1ccc(Cl)c(Cl)c1
- AC50 [1]: inconclusive: 21.3 µM and inconclusive: 94.1 µM
- AC50 [2]: inconclusive: 35.7 µM and inconclusive: 22 µM
- AC50 [3]: inconclusive: 0.000118 µM
- outcome [9]: inactive
- AC50 [6]: active: 64.4 µM
- AC50 [11]: inconclusive: 2.6 µM

Compound: CC1=NN(c2cc(S(=O)(=O)O)ccc2Cl)C(=O)C1N=Nc1ccccc1 (stereo unspecified)
- AC50 [1]: inconclusive: 12.9 µM
- AC50 [2]: inconclusive: 9.92 µM
- AC50 [3]: inconclusive: 46.1 µM
- AC50 [4]: inconclusive: 46.1 µM
- AC50 [5]: inconclusive: 46.1 µM

Compound: CN(C)c1ccc2nc3ccc(=[N+](C)C)cc-3sc2c1
- AC50 [1]: active: 26.3 µM
- AC50 [2]: active: 15.3 µM
- AC50 [7]: active: 8.31 µM and active: 23 µM and active: 11.1 µM
- AC50 [4]: active: 23 µM
- AC50 [8]: active: 34.3 µM
- outcome [8]: inactive
- AC50 [9]: active: 10.8 µM
- AC50 [10]: active: 45.7 µM and active: 13 µM
- outcome [10]: inactive
- AC50 [5]: inconclusive: 0.00701 µM
- AC50 [6]: active: 41.2 µM and active: 14.4 µM and active: 28.4 µM
